Results from paper PMC8260793, “A split protease-E. coli ClpXP system quantifies protein–protein interactions in Escherichia coli cells” (Communications Biology, 2021).
Substitutions are numbered along the chain they refer to. Names may count otherwise. Results are given in words; binding and its absence hold for the method and conditions named. Binding seen in cells or lysates may run through a third protein. Some results given as binding are weak or reduced against the parent protein; the word gives no strength. For part of these data: Where a sequence is shown, tags or fusion partners need not be part of it. Each block holds one binder with its values, some of them ahead of it.

Experiments:
[1] = target: T1, Lto1 from Fe-S protein assembly (CIA) machinery of Saccharomyces cerevisiae (Saccharomyces cerevisiae) (UniProt P53846); experiment: split reporter; SPEC: prey and bait fused to the N- and C-terminal split HRV 3 C protease (split at K82, L94 or N107); re-assembled protease cleaves SsrA off sfGFP-LEVLFQGP-SsrA (on a plasmid) in E. coli BL21(DE3); sfGFP fluorescence by flow cytometry; 25 °C, 8 h induction
T1 sequence: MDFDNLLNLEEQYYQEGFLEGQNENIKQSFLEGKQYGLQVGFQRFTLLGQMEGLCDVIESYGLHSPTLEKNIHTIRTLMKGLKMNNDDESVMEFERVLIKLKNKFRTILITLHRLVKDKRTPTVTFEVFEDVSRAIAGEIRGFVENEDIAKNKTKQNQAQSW

[2] = target: T2, Cas6 of E. coli K12 Type I-E CRISPR/Cas complex (E. coli K12) (UniProt Q46897); experiment: split reporter; SPEC profiling of CRISPR/Cas effectors and Cas3 / Cas2-3 mutants in E. coli cells; sfGFP fluorescence by flow cytometry; interaction intensity normalized to cells expressing wt HRV 3 C protease
T2 sequence: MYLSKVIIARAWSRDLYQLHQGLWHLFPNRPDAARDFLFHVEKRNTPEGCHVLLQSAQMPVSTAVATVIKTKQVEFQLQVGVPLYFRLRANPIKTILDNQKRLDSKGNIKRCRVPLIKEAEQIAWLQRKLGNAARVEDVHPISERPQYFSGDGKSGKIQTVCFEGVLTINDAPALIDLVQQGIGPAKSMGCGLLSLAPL

[3] = target: T3, Cas5 of E. coli K12 Type I-E CRISPR/Cas complex (E. coli K12) (UniProt Q46898); experiment: as above
T3 sequence: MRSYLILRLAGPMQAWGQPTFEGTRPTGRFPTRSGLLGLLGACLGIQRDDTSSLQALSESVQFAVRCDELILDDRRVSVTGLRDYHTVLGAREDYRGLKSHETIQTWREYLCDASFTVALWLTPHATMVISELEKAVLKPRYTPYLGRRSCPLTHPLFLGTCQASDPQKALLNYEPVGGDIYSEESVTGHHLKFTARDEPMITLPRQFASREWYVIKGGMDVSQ

[4] = target: T4, Cas1 of E. coli K12 Type I-E CRISPR/Cas complex (E. coli K12) (UniProt Q46896); experiment: as above
T4 sequence: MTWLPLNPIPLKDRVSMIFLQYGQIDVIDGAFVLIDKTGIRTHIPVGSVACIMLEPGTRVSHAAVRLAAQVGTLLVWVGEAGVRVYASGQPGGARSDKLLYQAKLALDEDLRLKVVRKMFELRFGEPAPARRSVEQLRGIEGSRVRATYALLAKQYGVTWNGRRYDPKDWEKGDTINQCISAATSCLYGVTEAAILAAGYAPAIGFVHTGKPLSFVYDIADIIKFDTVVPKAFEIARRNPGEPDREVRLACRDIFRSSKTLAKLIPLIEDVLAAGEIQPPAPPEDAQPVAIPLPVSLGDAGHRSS

[5] = target: T5, Cas8 of E. coli K12 Type I-E CRISPR/Cas complex (E. coli K12) (UniProt Q46901); experiment: as above
T5 sequence: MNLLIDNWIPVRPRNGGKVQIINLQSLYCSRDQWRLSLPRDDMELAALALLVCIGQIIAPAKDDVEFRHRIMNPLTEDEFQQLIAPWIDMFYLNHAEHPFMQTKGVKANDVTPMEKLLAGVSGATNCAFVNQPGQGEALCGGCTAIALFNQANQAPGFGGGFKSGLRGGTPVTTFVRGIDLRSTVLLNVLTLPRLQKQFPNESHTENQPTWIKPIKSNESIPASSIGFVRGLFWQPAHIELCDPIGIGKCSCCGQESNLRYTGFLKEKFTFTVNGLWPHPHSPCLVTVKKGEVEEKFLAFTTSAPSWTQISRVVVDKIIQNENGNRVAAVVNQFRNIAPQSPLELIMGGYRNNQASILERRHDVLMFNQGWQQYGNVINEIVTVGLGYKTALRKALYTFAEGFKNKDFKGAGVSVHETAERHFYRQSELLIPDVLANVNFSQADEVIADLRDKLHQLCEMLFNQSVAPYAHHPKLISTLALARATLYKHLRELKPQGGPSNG

B2: Cas2 of E. coli K12 Type I-E CRISPR/Cas complex (protein, UniProt P45956 1-94)
chain: MSMLVVVTENVPPRLRGRLAIWLLEVRAGVYVGDVSAKIREMIWEQIAGLAEEGNVVMAWATNTETGFEFQTFGLNRRTPVDLDGLRLVSFLPV
binding [2]: binds weakly
binding [3]: binds weakly

B4: Cas3 D75A (E. coli K12 Type I-E) (protein, UniProt P38036 1-888)
chain: MEPFKYICHYWGKSSKSLTKGNDIHLLIYHCLDVAAVADCWWDQSVVLQNTFCRNEMLSKQRVKAWLLFFIALHAIGKFDIRFQYKSAESWLKLNPATPSLNGPSTQMCRKFNHGAAGLYWFNQDSLSEQSLGDFFSFFDAAPHPYESWFPWVEAVTGHHGFILHSQDQDKSRWEMPASLASYAAQDKQAREEWISVLEALFLTPAGLSINDIPPDCSSLLAGFCSLADWLGSWTTTNTFLFNEDAPSDINALRTYFQDRQQDASRVLELSGLVSNKRCYEGVHALLDNGYQPRQLQVLVDALPVAPGLTVIEAPTGSGKTETALAYAWKLIDQQIADSVIFALPTQATANAMLTRMEASASHLFSSPNLILAHGNSRFNHLFQSIKSRAITEQGQEEAWVQCCQWLSQSNKKVFLGQIGVCTIDQVLISVLPVKHRFIRGLGIGRSVLIVDEVHAYDTYMNGLLEAVLKAQADVGGSVILLSATLPMKQKQKLLDTYGLHTDPVENNSAYPLINWRGVNGAQRFDLLAHPEQLPPRFSIQPEPICLADMLPDLTMLERMIAAANAGAQVCLICNLVDVAQVCYQRLKELNNTQVDIDLFHARFTLNDRREKENRVISNFGKNGKRNVGRILVATQVVEQSLDVDFDWLITQHCPADLLFQRLGRLHRHHRKYRPAGFEIPVATILLPDGEGYGRHEHIYSNVRVMWRTQQHIEELNGASLFFPDAYRQWLDSIYDDAEMDEPEWVGNGMDKFESAECEKRFKARKVLQWAEEYSLQDNDETILAVTRDGEMSLPLLPYVQTSSGKQLLDGQVYEDLSHEQQYEALALNRVNVPFTWKRSFSEVVDEDGLLWLEGKQNLDGWVWQGNSIVITYTGDEGMTRVIPANPK
binding [4]: binds

B6: Cas3 D452N (E. coli K12 Type I-E) (protein, UniProt P38036 1-888)
chain: B4 chain with A75D, D452N
binding [4]: binds

B7: Cas3 K78A (E. coli K12 Type I-E) (protein, UniProt P38036 1-888)
chain: B4 chain with A75D, K78A
binding [4]: binds

B9: Cas3 H74A (E. coli K12 Type I-E) (protein, UniProt P38036 1-888)
chain: B4 chain with H74A, A75D
binding [4]: binds

Continued, values first:

binding [1]: binds
B1: Yae1 from Fe-S protein assembly (CIA) machinery of Saccharomyces cerevisiae (protein, UniProt P47118 1-141)
chain: MSNTWDDVWASDSDVETERSPDLVKLRENHSKRGYLDGIVSSKEEKLQEGFNDGFPTGAKLGKQVGIIMGILLGLRTRFGDEDEDLSKAYIDAQKELRINKVLSKSIFDPNFDLQEKHPLITKWTDIANTYCEKYHVPSIQ

binding [2]: binds weakly
binding [4]: binds
B3: Cas3 of E. coli K12 Type I-E CRISPR/Cas complex (natural protein, UniProt P38036 1-888, looked up)
chain: B4 chain with A75D
notes: Cas3, effector of the type I-E CRISPR/Cas complex of E. coli K12; source: E. coli BL21(DE3) or BL21(DE3)-SPEC, expressed in the cells (IPTG induction)

binding [4]: binds
B5: Cas3 S483A/T485A (E. coli K12 Type I-E) (protein, UniProt P38036 1-888)
chain: B4 chain with A75D, S483A, T485A

binding [4]: binds
B8: Cas3 K320N (E. coli K12 Type I-E) (protein, UniProt P38036 1-888)
chain: B4 chain with A75D, K320N

binding [5]: binds weakly
B10: Cas5 of E. coli K12 Type I-E CRISPR/Cas complex (protein, UniProt Q46898 1-224)
chain: T3 sequence
